# Source: paper PMC4365668, “The zinc finger proteins ZNF644 and WIZ regulate the G9a/GLP complex for gene repression”
# B1: GLP (endogenous), Q9H9B1 1-1298 (enzyme)
# chain: MAAADAEAVPARGEPQQDCCVKTELLGEETPMAADEGSAEKQAGEAHMAADGETNGSCENSDASSHANAAKHTQDSARVNPQDGTNTLTRIAENGVSERDSEAAKQNHVTADDFVQTSVIGSNGYILNKPALQAQPLRTTSTLASSLPGHAAKTLPGGAGKGRTPSAFPQTPAAPPATLGEGSADTEDRKLPAPGADVKVHRARKTMPKSVVGLHAASKDPREVREARDHKEPKEEINKNISDFGRQQLLPPFPSLHQSLPQNQCYMATTKSQTACLPFVLAAAVSRKKKRRMGTYSLVPKKKTKVLKQRTVIEMFKSITHSTVGSKGEKDLGASSLHVNGESLEMDSDEDDSEELEEDDGHGAEQAAAFPTEDSRTSKESMSEADRAQKMDGESEEEQESVDTGEEEEGGDESDLSSESSIKKKFLKRKGKTDSPWIKPARKRRRRSRKKPSGALGSESYKSSAGSAEQTAPGDSTGYMEVSLDSLDLRVKGILSSQAEGLANGPDVLETDGLQEVPLCSCRMETPKSREITTLANNQCMATESVDHELGRCTNSVVKYELMRPSNKAPLLVLCEDHRGRMVKHQCCPGCGYFCTAGNFMECQPESSISHRFHKDCASRVNNASYCPHCGEESSKAKEVTIAKADTTSTVTPVPGQEKGSALEGRADTTTGSAAGPPLSEDDKLQGAASHVPEGFDPTGPAGLGRPTPGLSQGPGKETLESALIALDSEKPKKLRFHPKQLYFSARQGELQKVLLMLVDGIDPNFKMEHQNKRSPLHAAAEAGHVDICHMLVQAGANIDTCSEDQRTPLMEAAENNHLEAVKYLIKAGALVDPKDAEGSTCLHLAAKKGHYEVVQYLLSNGQMDVNCQDDGGWTPMIWATEYKHVDLVKLLLSKGSDINIRDNEENICLHWAAFSGCVDIAEILLAAKCDLHAVNIHGDSPLHIAARENRYDCVVLFLSRDSDVTLKNKEGETPLQCASLNSQVWSALQMSKALQDSAPDRPSPVERIVSRDIARGYERIPIPCVNAVDSEPCPSNYKYVSQNCVTSPMNIDRNITHLQYCVCIDDCSSSNCMCGQLSMRCWYDKDGRLLPEFNMAEPPLIFECNHACSCWRNCRNRVVQNGLRARLQLYRTRDMGWGVRSLQDIPPGTFVCEYVGELISDSEADVREEDSYLFDLDNKDGEVYCIDARFYGNVSRFINHHCEPNLVPVRVFMAHQDLRFPRIAFFSTRLIEAGEQLGFDYGERFWDIKGKLFSCRCGSPKCRHSSAALAQRQASAAQEAQEDGLPDTSSAAAADPL
# B2: ZNF644 (endogenous) (protein, UniProt Q9H582 1-1327)
# chain: MRSFLQQDVNKTKSRLNVLNGLANNMDDLKINTDITGAKEELLDDNNFISDKESGVHKPKDCQTSFQKNNTLTLPEELSKDKSENALSGGQSSLFIHAGAPTVSSENFILPKGAAVNGPVSHSSLTKTSNMNKGSVSLTTGQPVDQPTTESCSTLKVAADLQLSTPQKASQHQVLFLLSDVAHAKNPTHSNKKLPTSASVGCDIQNSVGSNIKSDGTLINQVEVGEDGEDLLVKDDCVNTVTGISSGTDGFRSENDTNWDPQKEFIQFLMTNEETVDKAPPHSKIGLEKKRKRKMDVSKITRYTEDCFSDSNCVPNKSKMQEVDFLEQNEELQAVDSQKYALSKVKPESTDEDLESVDAFQHLIYNPDKCGEESSPVHTSTFLSNTLKKKCEESDSESPATFSTEEPSFYPCTKCNVNFREKKHLHRHMMYHLDGNSHFRHLNVPRPYACRECGRTFRDRNSLLKHMIIHQERRQKLMEEIRELKELQDEGRSARLQCPQCVFGTNCPKTFVQHAKTHEKDKRYYCCEECNFMAVTENELECHRGIAHGAVVKCPMVTSDIAQRKTQKKTFMKDSVVGSSKKSATYICKMCPFTTSAKSVLKKHTEYLHSSSCVDSFGSPLGLDKRKNDILEEPVDSDSTKTLTKQQSTTFPKNSALKQDVKRTFGSTSQSSSFSKIHKRPHRIQKARKSIAQSGVNMCNQNSSPHKNVTIKSSVDQKPKYFHQAAKEKSNAKANSHYLYRHKYENYRMIKKSGESYPVHFKKEEASSLNSLHLFSSSSNSHNNFISDPHKPDAKRPESFKDHRRVAVKRVIKESKKESSVGGEDLDSYPDFLHKMTVVVLQKLNSAEKKDSYETEDESSWDNVELGDYTTQAIEDETYSDINQEHVNLFPLFKSKVEGQEPGENATLSYDQNDGFYFEYYEDTGSNNFLHEIHDPQHLETADASLSKHSSVFHWTDLSLEKKSCPYCPATFETGVGLSNHVRGHLHRAGLSYEARHVVSPEQIATSDKMQHFKRTGTGTPVKRVRKAIEKSETTSEHTCQLCGGWFDTKIGLSNHVRGHLKRLGKTKWDAHKSPICVLNEMMQNEEKYEKILKALNSRRIIPRPFVAQKLASSDDFISQNVIPLEAYRNGLKTEALSVSASEEEGLNFLNEYDETKPELPSGKKNQSLTLIELLKNKRMGEERNSAISPQKIHNQTARKRFVQKCVLPLNEDSPLMYQPQKMDLTMHSALDCKQKKSRSRSGSKKKMLTLPHGADEVYILRCRFCGLVFRGPLSVQEDWIKHLQRHIVNANLPRTGAGMVEVTSLLKKPASITETSFSLLMAEAAS
# Key:
# Test in all cases: affinity purification with mass spectrometry; tandem affinity purification from 293T cells stably expressing the SFB-tagged bait; lysis in NETN300 (300 mM NaCl); streptavidin agarose, elution with 2 mM biotin, then S beads; SDS-PAGE, silver staining and mass spectrometry
# [1] = target: T1, SFB-tagged ZNF644 (bait of the reciprocal affinity purification) (human) (UniProt Q9H582)
# T1 sequence: B2 chain
# [2] = target: T2, SFB-tagged G9a (wild type), Q96KQ7; settings: remark: other sources report otherwise
# T2 chain: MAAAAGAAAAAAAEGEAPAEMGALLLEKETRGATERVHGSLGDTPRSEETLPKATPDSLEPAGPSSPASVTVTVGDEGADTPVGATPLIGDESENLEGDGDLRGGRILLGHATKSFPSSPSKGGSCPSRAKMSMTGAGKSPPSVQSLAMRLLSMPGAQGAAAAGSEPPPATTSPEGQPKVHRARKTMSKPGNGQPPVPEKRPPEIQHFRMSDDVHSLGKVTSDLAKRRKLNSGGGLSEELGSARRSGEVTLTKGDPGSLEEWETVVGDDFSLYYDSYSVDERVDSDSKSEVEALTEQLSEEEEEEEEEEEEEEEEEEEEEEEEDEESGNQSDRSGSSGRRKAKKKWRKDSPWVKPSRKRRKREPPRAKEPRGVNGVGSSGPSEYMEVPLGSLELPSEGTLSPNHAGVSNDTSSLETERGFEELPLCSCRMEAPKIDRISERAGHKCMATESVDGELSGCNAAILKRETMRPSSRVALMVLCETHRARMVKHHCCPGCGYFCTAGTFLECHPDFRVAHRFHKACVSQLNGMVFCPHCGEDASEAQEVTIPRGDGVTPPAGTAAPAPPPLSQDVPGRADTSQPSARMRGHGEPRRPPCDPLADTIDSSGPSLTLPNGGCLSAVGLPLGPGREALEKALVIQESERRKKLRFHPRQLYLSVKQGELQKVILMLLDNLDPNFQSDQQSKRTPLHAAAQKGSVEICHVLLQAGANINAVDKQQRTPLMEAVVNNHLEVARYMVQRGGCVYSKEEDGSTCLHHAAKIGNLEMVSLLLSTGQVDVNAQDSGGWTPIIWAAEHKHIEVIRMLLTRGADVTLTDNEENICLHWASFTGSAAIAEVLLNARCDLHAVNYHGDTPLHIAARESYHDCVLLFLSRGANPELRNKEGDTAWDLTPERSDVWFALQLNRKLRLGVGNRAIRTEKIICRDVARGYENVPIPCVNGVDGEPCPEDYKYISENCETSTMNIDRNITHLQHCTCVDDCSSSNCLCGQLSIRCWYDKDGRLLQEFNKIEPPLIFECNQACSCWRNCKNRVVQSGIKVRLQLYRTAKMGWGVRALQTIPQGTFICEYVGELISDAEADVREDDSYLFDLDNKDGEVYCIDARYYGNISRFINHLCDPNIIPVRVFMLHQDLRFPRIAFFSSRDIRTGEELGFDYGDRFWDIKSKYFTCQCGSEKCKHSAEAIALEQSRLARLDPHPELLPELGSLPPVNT
# [3] = target: SFB-tagged G9a (wild type) (UniProt Q96KQ7)
molecule,measurement,setting,value
G9a (endogenous) (from UniProt Q96KQ7 1-1210) (enzyme),binding,[1],binds
B1,binding,[2],binds
B2,binding,[3],binds

# No constants are given. Whether binding was seen depends on the method and setting. In cells and extracts the contact can be indirect. Here binding means that the protein was enriched with, or labelled near, the bait; the list need not be complete. For part of these data: Sequences can lack the tags named with a protein.
